According to the supplement of paper PMC3545927:
Only a part is listed here, and it is no random draw.

Chains of the proteins cited; added tags and fusions are not shown.
furin, P09958, UniProt P09958, whole entry: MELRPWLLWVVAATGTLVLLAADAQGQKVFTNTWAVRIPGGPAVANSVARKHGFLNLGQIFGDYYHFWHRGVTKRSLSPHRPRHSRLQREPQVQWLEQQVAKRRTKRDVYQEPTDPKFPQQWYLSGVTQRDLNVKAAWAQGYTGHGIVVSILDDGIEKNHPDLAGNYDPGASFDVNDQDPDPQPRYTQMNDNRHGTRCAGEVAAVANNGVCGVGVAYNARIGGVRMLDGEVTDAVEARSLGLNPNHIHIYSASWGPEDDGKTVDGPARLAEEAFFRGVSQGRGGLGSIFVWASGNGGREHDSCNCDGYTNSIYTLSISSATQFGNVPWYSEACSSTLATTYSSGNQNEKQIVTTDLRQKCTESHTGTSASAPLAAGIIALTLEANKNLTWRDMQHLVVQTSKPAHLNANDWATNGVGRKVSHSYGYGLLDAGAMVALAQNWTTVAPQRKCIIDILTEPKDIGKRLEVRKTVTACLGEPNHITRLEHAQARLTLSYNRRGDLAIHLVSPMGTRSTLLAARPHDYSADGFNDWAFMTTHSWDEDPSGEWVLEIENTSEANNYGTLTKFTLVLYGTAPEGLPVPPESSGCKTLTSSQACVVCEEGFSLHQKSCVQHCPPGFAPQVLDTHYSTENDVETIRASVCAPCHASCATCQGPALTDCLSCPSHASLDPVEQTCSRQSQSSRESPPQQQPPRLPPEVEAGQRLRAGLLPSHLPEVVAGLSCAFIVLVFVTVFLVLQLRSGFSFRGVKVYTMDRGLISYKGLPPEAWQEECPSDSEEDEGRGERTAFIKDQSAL

B1: HC1413 (peptide)
chain: CAVEEACSLTAGNASASA
B2: HC1684 (peptide)
chain: CAMIECSQHLAGNASASA
B3: FS-305 (peptide)
chain: CATLGRHRRIAGNASASA
B4: HC1198 (peptide)
chain: CAAPNYTFALAGNASASA
B5: FS-654 (peptide)
chain: CAGGRRRKKSAGNASASA
B6: FS-2632 (peptide)
chain: CAMQKRSVTAAGNASASA
B7: HC2145 (peptide)
chain: CALVVTSTWVAGNASASA
B8: HC1613 (peptide)
chain: CAVAACLRKLAGNASASA
B9: FS-3201 (peptide)
chain: CARPRRWKLQAGNASASA
B10: FS-1282 (peptide)
chain: CASRDRFRRSAGNASASA
B11: HC1633 (peptide)
chain: CALFNWAVRTAGNASASA
B12: HC678 (peptide)
chain: CAQTRGLLGCAGNASASA
B13: FS-537 (peptide)
chain: CAHPKRPSRQAGNASASA
B14: FS-942 (peptide)
chain: CALRARKNRSAGNASASA
B15: FS-2226 (peptide)
chain: CARQKRLSHVAGNASASA
B16: FS-1736 (peptide)
chain: CARLARRAHRAGNASASA
B17: FS-2724 (peptide)
chain: CARMRRGAGGAGNASASA
B18: FS-2166 (peptide)
chain: CARPRRPRGAAGNASASA
B19: FS-1369 (peptide)
chain: CALRSRWGRFAGNASASA
B20: HC1423 (peptide)
chain: CAAKDVRCHAAGNASASA
B21: FS-1314 (peptide)
chain: CACWPRHRRVAGNASASA
B22: FS-372 (peptide)
chain: CAQWIRVKRTAGNASASA
B23: FS-938 (peptide)
chain: CALEGRRKRAAGNASASA
B24: HC39 (peptide)
chain: CAMEECQQHLAGNASASA
B25: FS-1450 (peptide)
chain: CAEHFRKKRSAGNASASA
B26: FS-2617 (peptide)
chain: CARVFRDAGAAGNASASA
B27: HC386 (peptide)
chain: CAGCPERLASAGNASASA
B28: HC2248 (peptide)
chain: CAEVVTSTWWAGNASASA
B29: HC1905 (peptide)
chain: CATTPCSGLWAGNASASA
B30: FS-2335 (peptide)
chain: CARHKRMCQGAGNASASA
B31: HC2556 (peptide)
chain: CASTPCSAGLAGNASASA
B32: FS-301 (peptide)
chain: CASQARLGRIAGNASASA
B33: FS-233 (peptide)
chain: CAENARKIRTAGNASASA
B34: HC60 (peptide)
chain: CATTPPSGSWAGNASASA
B35: FS-730 (peptide)
chain: CATRSRNSRFAGNASASA
B36: FS-1650 (peptide)
chain: CARKRRAKREAGNASASA
B37: HC2436 (peptide)
chain: CAGREVPCHRAGNASASA

Biological target: furin, P09958
Experiment: furin cleavage Z-score vs untreated control; higher = more cleavage, active = 3.5 or more, inactive = 1 or less, 8 variable residues between constant flanks
Description: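 Multiplexed peptide-cDNA fusion cleavage assay. 8-mer variable peptides flanked by constant Cys-Ala (N-term) and Ala-Gly-Asn-Ala-Ser-Ala-Ser-Ala (C-term) and conjugated to a cDNA oligonucleotide were bead-immobilised via the N-terminus. They were treated with purified furin at a 1:10 enzyme:substrate ratio in 50 mM HEPES pH 7.5, 1 mM CaCl2, 100 mM NaCl for 7.5, 15 or 30 min. Released cDNA was counted by next-generation sequencing, and log counts versus no-furin controls were lowess-adjusted and converted to robust Z-scores.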

Sequence	furin cleavage Z-score (7.5 min)	furin cleavage Z-score (15 min)	furin cleavage Z-score (30 min)
B1	1.3	2.43	2.83
B2	1.09	1.22	1.23
B3		active: 4.75	active: 4.61
B4	inactive: -1.92	inactive: -0.299	inactive: -0.368
B5	1.86	2.14	2.63
B6	1.25	2.99	3.47
B7	inactive: -0.711	inactive: -0.969	inactive: -0.561
B8	2.6	1.36	1.97
B9	1.28	1.04	1.05
B10	active: 13	active: 12.2	active: 9.49
B11	2.37	1.33	1.17
B12	inactive: 0.117	inactive: -0.157	inactive: -0.705
B13	2.45	2.47	2.01
B14	active: 8.1	active: 8.12	active: 6.93
B15	1.31	2.13	2.36
B16	1.23	1.5	2.96
B17	2.04	2.43	2.69
B18	2.21	1.1	1.48
B19	2.53	1.38	1.71

Sequence	furin cleavage Z-score (7.5 min)	furin cleavage Z-score (15 min)	furin cleavage Z-score (30 min)
B20	2.63	1.91	1.42
B21	inactive: 0.553	1.38	2.27
B22	active: 10	active: 8.77	active: 8.64
B23	active: 9.45	active: 10.2	active: 8.2
B24	1.54	inactive: 0.787	2.55
B25	active: 13.1	active: 12	active: 10.4
B26	1.53	1.03	1.31
B27	1.74	inactive: 0.605	inactive: -0.259
B28	2.34	1.15	1.81
B29	inactive: 0.96	1.01	inactive: -0.0137
B30	1.23	inactive: 0.787	3.08
B31	inactive: -0.924	inactive: -0.11	inactive: -0.471
B32	inactive: -1.06	inactive: -0.739	inactive: -0.311
B33	3.32	2.61	2.12
B34	inactive: -1.04	inactive: -0.299	inactive: -0.554
B35	2.17	3.15	3.21
B36	active: 13	active: 13.6	active: 9.6
B37	1.55	1.03	1.31

3 entries picked at random from those above, as already listed:
Sequence	furin cleavage Z-score (7.5 min)	furin cleavage Z-score (15 min)	furin cleavage Z-score (30 min)
B22	active: 10	active: 8.77	active: 8.64
B33	3.32	2.61	2.12
B28	2.34	1.15	1.81
